From PubChem BioAssay AID248 (DTP/NCI, 2004)
The list does not hold the whole screen: it gathers tests that were run many times, whatever their T/C, doses with no T/C, and many T/C values between a quarter and a half above the control. Further doses and runs are listed elsewhere. T/C: endpoint of the treated group in % of that of the vehicle group. Some entries give survivors of the animals treated and no T/C: the source files T/C as zero there, which appears to mark a toxic dose or a test without result, not a measured value. Some doses without a T/C left all or most animals alive at the check, yet need not have been tolerated: the source hardly ever lists a survival T/C far under the control, and the zero likely stands for such cases as well. Survivors were counted at the toxicity check, usually on the fifth day, unless a day is given; later deaths do not show. Schedule codes are those of the source, read here as Q, the interval in days (D) or hours (H), X, the number of doses. Some schedule codes hold Z or #, which are not explained here. Some entries hold several experiments; the results are listed from low to high. Some molecules as drawn cover several salts, stereoisomers or complexes of the source; a dose is that of the sample tested. For survival time, the PubChem record calls one and a half times the control and up active, and a quarter to a half above the control has no call in these data; cut-offs in other NCI protocols can differ.

Test system: L1210 leukemia ip in BDF1 mice, survival T/C
Test: NCI In Vivo Anticancer Drug Screen. Data for tumor model L1210 Leukemia (intraperitoneal) in B6D2F1 (BDF1) mice
Conditions: T/C endpoint: mean survival time, higher T/C = longer survival
[1] = dose: 100.0 mg/kg/injection, schedule: Q04DX003 (ip), vehicle: saline
[2] = dose: 200.0 mg/kg/injection, schedule: Q04DX003 (ip), vehicle: saline
[3] = dose: 400.0 mg/kg/injection, schedule: Q04DX003 (ip), vehicle: saline
[4] = dose: 400.0 mg/kg/injection, schedule: Q01DX009 (ip), vehicle: saline with Tween-80
[5] = dose: 50.0 mg/kg/injection, schedule: Q01DX001 (ip), vehicle: saline
[6] = dose: 100.0 mg/kg/injection, schedule: Q01DX001 (ip), vehicle: saline
[7] = dose: 200.0 mg/kg/injection, schedule: Q01DX001 (ip), vehicle: saline
[8] = dose: 400.0 mg/kg/injection, schedule: Q01DX001 (ip), vehicle: saline
[9] = dose: 100.0 mg/kg/injection, schedule: Q04DX003 (ip), vehicle: acetone
[10] = dose: 400.0 mg/kg/injection, schedule: Q04DX003 (ip), vehicle: saline with Tween-80

COc1cc(N=Nc2ccc([N+](=O)[O-])cc2)c(OC)cc1N
survivor count (dose: 80.0 mg/kg/injection, schedule: Q01DX001 (ip), vehicle: other): 2 of 4
survivor count (dose: 100.0 mg/kg/injection, schedule: Q01DX001 (ip), vehicle: other): 0 of 4
survivor count (dose: 200.0 mg/kg/injection, schedule: Q01DX001 (ip), vehicle: other): 0 of 4
survivor count (dose: 400.0 mg/kg/injection, schedule: Q01DX001 (ip), vehicle: other): 0 of 4

N=C(N)c1ccc(-c2cc(-c3ccc(C(=N)N)cc3)on2)cc1
survivor count [1]: 0 of 4
survivor count [2]: 0 of 4
survivor count [3]: 0 of 4

CC(C)=NNC(=O)c1ccc(N)cc1
survivor count [4]: 0 of 6

Cc1ccc(S/C(=C/c2ccccc2)C(N)=O)cc1
survivor count (dose: 100.0 mg/kg/injection, schedule: Q04DX003 (ip), vehicle: Klucel (hydroxypropylcellulose) (HPC)): 6 of 6

CCC[CH2][Sn]1([CH2]CCC)[O]CC[S]1
survivor count (dose: 10.0 mg/kg/injection, schedule: Q01DX001 (ip), vehicle: saline): 1 of 4
survivor count (dose: 20.0 mg/kg/injection, schedule: Q01DX001 (ip), vehicle: saline): 0 of 4
survivor count (dose: 40.0 mg/kg/injection, schedule: Q01DX001 (ip), vehicle: saline): 0 of 4
survivor count [5]: 0 of 4
survivor count (dose: 80.0 mg/kg/injection, schedule: Q01DX001 (ip), vehicle: saline): 0 of 4
survivor count [6]: 0 of 4
survivor count [7]: 0 of 4
survivor count [8]: 0 of 4

C/C=C/C=C/C(=O)NO
T/C (dose: 266.0 mg/kg/injection, schedule: Q01DX009 (ip), vehicle: carboxymethylcellulose (CMC)): 134 % of control
T/C (dose: 400.0 mg/kg/injection, schedule: Q01DX009 (ip), vehicle: Klucel (hydroxypropylcellulose) (HPC)): 134 % of control
T/C (dose: 400.0 mg/kg/injection, schedule: Q01DX009 (ip), vehicle: carboxymethylcellulose (CMC)): 134 % of control
T/C (dose: 600.0 mg/kg/injection, schedule: Q01DX009 (ip), vehicle: carboxymethylcellulose (CMC)): 134 % of control

CCN(CC)CCCC(C)NC(=O)c1ccc(Cl)nc1 (stereo not drawn)
survivor count [4]: 1 of 6

Cc1ccc(S(=O)(=O)/C=C\S(=O)(=O)c2ccc(C)cc2)cc1
survivor count [9]: 0 of 6
survivor count (dose: 200.0 mg/kg/injection, schedule: Q01DX001 (ip), vehicle: acetone): 1 of 6
survivor count (dose: 400.0 mg/kg/injection, schedule: Q01DX001 (ip), vehicle: acetone): 0 of 6

CCSC(=S)SCC(=O)O
survivor count [10]: 6 of 6

CN1C(=O)CC(C(=O)c2ccc(N3C(=O)C=CC3=O)cc2)(c2ccccc2)C1=O (stereo not drawn)
survivor count (dose: 100.0 mg/kg/injection, schedule: Q04DX002 (ip), vehicle: saline with Tween-80): 0 of 3 and 1 of 3
survivor count (dose: 200.0 mg/kg/injection, schedule: Q04DX002 (ip), vehicle: saline with Tween-80): 0 of 3
survivor count (dose: 400.0 mg/kg/injection, schedule: Q04DX002 (ip), vehicle: saline with Tween-80): 0 of 3

Cc1ccc(-c2ccc3sc(C)[n+](C)c3c2)cc1
survivor count [2]: 6 of 6
survivor count [3]: 0 of 6

C(=NCCN=Cc1c[nH]c2ccccc12)c1c[nH]c2ccccc12
survivor count [4]: 4 of 6
survivor count [10]: 4 of 6

O=C(O)C(=O)c1c(O)n(-c2ccccc2)c2ccccc12
survivor count (dose: 200.0 mg/kg/injection, schedule: Q01DX001 (ip), vehicle: Klucel (hydroxypropylcellulose) (HPC)): 3 of 3
survivor count (dose: 400.0 mg/kg/injection, schedule: Q01DX001 (ip), vehicle: Klucel (hydroxypropylcellulose) (HPC)): 1 of 3

CN(C)CC(OCCCc1ccccc1)C(Cl)(Cl)Cl (stereo not drawn)
survivor count [10]: 1 of 6

O=C(C(Cl)Cl)C(Cl)Cl
survivor count (dose: 20.0 mg/kg/injection, schedule: Q01DX001 (ip), vehicle: carboxymethylcellulose (CMC)): 3 of 6
survivor count (dose: 40.0 mg/kg/injection, schedule: Q01DX001 (ip), vehicle: carboxymethylcellulose (CMC)): 3 of 6
survivor count (dose: 50.0 mg/kg/injection, schedule: Q01DX001 (ip), vehicle: carboxymethylcellulose (CMC)): 0 of 6
survivor count (dose: 100.0 mg/kg/injection, schedule: Q01DX001 (ip), vehicle: carboxymethylcellulose (CMC)): 0 of 6
survivor count (dose: 200.0 mg/kg/injection, schedule: Q01DX001 (ip), vehicle: carboxymethylcellulose (CMC)): 0 of 6
survivor count (dose: 400.0 mg/kg/injection, schedule: Q01DX001 (ip), vehicle: carboxymethylcellulose (CMC)): 0 of 6

FC(F)(F)c1cccc(N2CCNCC2)c1
survivor count (dose: 150.0 mg/kg/injection, schedule: Q01DX001 (ip), vehicle: acid diluted with saline): 0 of 6
survivor count (dose: 300.0 mg/kg/injection, schedule: Q01DX001 (ip), vehicle: acid diluted with saline): 0 of 6

CN1C2CCC1CC(NCCN1CC1)C2 (stereo not drawn)
survivor count [7]: 0 of 6
survivor count [8]: 0 of 6

NNC12CCC(c3ccccc31)c1ccccc12
survivor count (dose: 400.0 mg/kg/injection, schedule: Q04DX003 (ip), vehicle: saline sonified): 1 of 6

Nc1nc(=S)c2nc(CNc3ccc(C(=O)NC(CCC(=O)O)C(=O)O)cc3)nnc2[nH]1 (stereo not drawn)
survivor count (dose: 400.0 mg/kg/injection, schedule: Q01DX001 (ip), vehicle: saline with Tween-80): 0 of 4

COC1OC(n2cnc3ncn(Cc4ccccc4)c3c2=N)C2OC(C)(C)OC12 (stereo not drawn)
survivor count [3]: 0 of 6

N=c1nc(N)nc2c3ccccc3nnn12
survivor count (dose: 300.0 mg/kg/injection, schedule: Q01DX001 (ip), vehicle: other): 1 of 6

COc1cccc(/C=C/[N+](=O)[O-])c1OCc1ccccc1
survivor count [9]: 4 of 6
survivor count (dose: 200.0 mg/kg/injection, schedule: Q04DX003 (ip), vehicle: acetone): 2 of 6
survivor count (dose: 400.0 mg/kg/injection, schedule: Q04DX003 (ip), vehicle: acetone): 1 of 6

CCCCCCCCC/C=N\N=C(N)N
survivor count (dose: 480.0 mg/kg/injection, schedule: Q01DX Z (ip), vehicle: carboxymethylcellulose (CMC)): 3 of 6

Cc1cc(Nc2ccc(C)c(C)c2)nc(N)n1
survivor count (dose: 200.0 mg/kg/injection, schedule: Q01DX Z (ip), vehicle: methylcellulose (MC)): 5 of 6

CC1(C)N=C(N)N=C(N)N1c1ccc(C(=O)c2ccccc2)cc1
survivor count [1]: 6 of 6

COc1cc([N+](=O)[O-])cc2c1OC1(C=C2)N(C)c2ccccc2C1(C)C (stereo not drawn)
survivor count (dose: 100.0 mg/kg/injection, schedule: Q04DX002 (ip), vehicle: gum acacia): 3 of 3

COc1ccc(N=C(N)N=C(N)N)cc1
survivor count [8]: 2 of 4
survivor count (dose: 400.0 mg/kg/injection, schedule: Q01DX009 (ip), vehicle: saline): 3 of 6

CN1CCCN(C)C1
survivor count (dose: 200.0 mg/kg/injection, schedule: Q01DX009 (ip), vehicle: saline with Tween-80): 3 of 6
survivor count [10]: 0 of 6

ON=C(CCl)CCl
survivor count (dose: 12.5 mg/kg/injection, schedule: Q01DX009 (ip), vehicle: saline): 0 of 3
survivor count (dose: 25.0 mg/kg/injection, schedule: Q01DX009 (ip), vehicle: saline): 0 of 3
survivor count [5]: 0 of 6
survivor count (dose: 50.0 mg/kg/injection, schedule: Q01DX009 (ip), vehicle: saline): 0 of 3
survivor count [6]: 0 of 6
survivor count (dose: 100.0 mg/kg/injection, schedule: Q01DX009 (ip), vehicle: saline): 0 of 3
survivor count [7]: 0 of 6
survivor count (dose: 200.0 mg/kg/injection, schedule: Q01DX009 (ip), vehicle: saline): 0 of 3
survivor count [8]: 0 of 6

CCCCOC(=O)C1=NC=NC1=[N+]=[N-]
survivor count [6]: 0 of 6
survivor count [7]: 0 of 6
survivor count [8]: 0 of 6

CCCCCCCCCCCCCC(C)NCc1ccccc1 (stereo not drawn)
survivor count [7]: 0 of 4
survivor count [8]: 0 of 4
survivor count (dose: 800.0 mg/kg/injection, schedule: Q01DX001 (ip), vehicle: saline): 0 of 4

c1ccc(C2=NCCCO2)cc1
survivor count [2]: 0 of 6
survivor count [3]: 0 of 6
